# According to the supplement of paper PMC10849652:
# Sequences of proteins named here, by UniProt entry; tags and fusion partners are left off. A change or cut given only in a name is not applied to a line headed by its entry.
# UniProt P35219: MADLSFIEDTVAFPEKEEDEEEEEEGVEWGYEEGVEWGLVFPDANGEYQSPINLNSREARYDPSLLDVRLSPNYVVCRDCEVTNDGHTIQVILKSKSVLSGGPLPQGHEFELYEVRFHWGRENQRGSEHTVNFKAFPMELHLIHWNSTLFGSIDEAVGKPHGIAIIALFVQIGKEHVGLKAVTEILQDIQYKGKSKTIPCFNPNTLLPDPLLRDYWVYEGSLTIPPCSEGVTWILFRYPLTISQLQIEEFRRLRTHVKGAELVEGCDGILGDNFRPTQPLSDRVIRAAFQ
# UniProt Q9H3J6: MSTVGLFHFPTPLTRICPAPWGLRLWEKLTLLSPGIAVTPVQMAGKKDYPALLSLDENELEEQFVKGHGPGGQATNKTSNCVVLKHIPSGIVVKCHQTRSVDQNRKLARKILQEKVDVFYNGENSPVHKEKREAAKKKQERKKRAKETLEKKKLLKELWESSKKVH
# UniProt Q9Y6E2: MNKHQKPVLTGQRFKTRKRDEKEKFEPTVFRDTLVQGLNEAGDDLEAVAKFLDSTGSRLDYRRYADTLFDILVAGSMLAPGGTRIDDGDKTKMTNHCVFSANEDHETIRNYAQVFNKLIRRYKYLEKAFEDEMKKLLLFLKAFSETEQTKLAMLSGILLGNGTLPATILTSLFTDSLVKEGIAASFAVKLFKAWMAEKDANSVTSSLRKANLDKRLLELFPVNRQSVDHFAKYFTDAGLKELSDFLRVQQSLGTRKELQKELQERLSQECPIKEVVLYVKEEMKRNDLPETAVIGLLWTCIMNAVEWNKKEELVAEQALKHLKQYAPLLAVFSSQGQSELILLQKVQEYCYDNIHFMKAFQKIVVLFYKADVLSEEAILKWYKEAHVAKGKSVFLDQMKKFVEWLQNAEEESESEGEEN
# UniProt P05937: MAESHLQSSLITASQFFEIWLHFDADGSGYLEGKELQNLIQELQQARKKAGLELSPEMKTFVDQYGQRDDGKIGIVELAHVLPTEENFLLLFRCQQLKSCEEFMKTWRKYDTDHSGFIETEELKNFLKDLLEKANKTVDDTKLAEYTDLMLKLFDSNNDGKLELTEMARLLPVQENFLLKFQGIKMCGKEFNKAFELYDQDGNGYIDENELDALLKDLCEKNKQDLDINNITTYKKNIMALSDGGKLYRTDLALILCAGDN
# UniProt P40121: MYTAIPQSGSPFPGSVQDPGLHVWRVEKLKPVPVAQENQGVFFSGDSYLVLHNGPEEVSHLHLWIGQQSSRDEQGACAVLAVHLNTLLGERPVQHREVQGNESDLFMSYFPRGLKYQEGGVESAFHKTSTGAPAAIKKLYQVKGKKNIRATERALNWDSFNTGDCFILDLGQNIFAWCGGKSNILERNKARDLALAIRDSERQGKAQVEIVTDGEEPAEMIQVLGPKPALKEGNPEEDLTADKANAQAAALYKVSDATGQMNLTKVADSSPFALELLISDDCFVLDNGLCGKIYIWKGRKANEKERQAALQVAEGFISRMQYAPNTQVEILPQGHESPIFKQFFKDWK
# UniProt P27824: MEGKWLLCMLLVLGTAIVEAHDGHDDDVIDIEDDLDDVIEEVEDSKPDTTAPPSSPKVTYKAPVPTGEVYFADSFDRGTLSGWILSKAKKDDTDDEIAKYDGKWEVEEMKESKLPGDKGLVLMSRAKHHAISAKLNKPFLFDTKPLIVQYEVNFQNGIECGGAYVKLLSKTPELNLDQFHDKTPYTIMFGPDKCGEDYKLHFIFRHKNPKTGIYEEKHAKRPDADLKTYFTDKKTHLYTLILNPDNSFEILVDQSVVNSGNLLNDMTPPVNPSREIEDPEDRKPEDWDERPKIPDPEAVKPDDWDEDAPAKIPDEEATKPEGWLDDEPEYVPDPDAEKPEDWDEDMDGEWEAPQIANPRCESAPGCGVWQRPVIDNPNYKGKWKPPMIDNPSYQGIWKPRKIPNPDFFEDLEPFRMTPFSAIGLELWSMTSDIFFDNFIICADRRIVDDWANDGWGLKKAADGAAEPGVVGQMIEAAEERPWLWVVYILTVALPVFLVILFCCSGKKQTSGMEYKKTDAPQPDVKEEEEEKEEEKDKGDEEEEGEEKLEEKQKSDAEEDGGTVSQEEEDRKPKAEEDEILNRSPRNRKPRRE
# UniProt Q14444, whole entry, looked up: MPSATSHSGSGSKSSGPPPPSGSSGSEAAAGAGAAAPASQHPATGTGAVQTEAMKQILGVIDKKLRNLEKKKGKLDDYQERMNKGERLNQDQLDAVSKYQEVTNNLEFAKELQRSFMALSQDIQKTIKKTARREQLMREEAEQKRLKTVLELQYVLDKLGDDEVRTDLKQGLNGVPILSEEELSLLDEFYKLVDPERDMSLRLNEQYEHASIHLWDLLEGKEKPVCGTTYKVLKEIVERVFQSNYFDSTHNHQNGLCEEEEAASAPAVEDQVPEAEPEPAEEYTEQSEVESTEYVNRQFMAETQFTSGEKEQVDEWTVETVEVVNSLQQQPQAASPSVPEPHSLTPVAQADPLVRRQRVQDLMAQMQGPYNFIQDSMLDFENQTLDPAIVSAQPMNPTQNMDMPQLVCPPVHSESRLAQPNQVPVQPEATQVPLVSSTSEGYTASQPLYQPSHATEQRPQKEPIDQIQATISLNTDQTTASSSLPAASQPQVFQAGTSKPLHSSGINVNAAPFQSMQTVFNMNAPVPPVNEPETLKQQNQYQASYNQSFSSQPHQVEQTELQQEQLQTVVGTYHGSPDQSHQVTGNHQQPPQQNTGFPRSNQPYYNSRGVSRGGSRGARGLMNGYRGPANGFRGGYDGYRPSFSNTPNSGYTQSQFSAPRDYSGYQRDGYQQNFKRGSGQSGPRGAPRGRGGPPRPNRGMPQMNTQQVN
# UniProt Q9Y376: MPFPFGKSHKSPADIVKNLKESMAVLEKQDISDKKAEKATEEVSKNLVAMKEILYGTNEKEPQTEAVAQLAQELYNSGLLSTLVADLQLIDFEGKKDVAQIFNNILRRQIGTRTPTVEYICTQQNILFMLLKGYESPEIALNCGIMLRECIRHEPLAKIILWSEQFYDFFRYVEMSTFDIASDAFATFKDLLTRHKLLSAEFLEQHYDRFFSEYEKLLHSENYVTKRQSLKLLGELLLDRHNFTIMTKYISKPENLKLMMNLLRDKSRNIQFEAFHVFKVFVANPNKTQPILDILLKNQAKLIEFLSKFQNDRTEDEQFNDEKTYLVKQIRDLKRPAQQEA
# UniProt Q9H9S4: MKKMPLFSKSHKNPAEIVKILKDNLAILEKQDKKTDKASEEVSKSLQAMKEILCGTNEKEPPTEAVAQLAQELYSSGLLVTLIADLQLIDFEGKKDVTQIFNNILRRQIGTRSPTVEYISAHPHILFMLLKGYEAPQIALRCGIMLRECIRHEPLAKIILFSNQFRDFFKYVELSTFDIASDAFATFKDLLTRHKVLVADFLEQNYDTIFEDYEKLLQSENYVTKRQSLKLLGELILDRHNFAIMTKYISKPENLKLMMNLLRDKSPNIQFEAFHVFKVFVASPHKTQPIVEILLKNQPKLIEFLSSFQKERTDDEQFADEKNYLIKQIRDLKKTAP
# UniProt Q8N5S9: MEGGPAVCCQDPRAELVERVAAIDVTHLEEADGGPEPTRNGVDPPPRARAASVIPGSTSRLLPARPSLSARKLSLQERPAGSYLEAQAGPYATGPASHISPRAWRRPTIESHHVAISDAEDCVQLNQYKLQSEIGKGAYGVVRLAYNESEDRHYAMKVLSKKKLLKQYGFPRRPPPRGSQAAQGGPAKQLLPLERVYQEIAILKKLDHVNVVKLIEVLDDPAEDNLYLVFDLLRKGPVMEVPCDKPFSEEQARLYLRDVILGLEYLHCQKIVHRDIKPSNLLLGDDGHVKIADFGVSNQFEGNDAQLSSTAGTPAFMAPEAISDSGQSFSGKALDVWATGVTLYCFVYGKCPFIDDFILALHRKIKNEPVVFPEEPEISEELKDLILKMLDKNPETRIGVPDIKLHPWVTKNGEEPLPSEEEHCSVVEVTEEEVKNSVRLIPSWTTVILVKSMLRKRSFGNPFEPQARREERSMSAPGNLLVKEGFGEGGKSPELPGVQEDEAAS
# UniProt Q8N6N3: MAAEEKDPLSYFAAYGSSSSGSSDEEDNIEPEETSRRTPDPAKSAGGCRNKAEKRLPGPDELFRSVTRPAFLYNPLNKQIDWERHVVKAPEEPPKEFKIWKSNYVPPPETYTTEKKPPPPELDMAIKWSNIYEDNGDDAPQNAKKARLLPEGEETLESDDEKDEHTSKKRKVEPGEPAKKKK
# UniProt Q9BRJ6: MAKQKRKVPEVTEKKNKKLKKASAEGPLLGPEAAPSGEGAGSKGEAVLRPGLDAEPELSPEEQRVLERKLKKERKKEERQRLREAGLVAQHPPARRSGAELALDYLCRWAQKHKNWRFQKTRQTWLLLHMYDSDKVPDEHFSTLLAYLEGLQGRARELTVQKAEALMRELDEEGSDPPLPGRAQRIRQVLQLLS
# UniProt Q9H8G2: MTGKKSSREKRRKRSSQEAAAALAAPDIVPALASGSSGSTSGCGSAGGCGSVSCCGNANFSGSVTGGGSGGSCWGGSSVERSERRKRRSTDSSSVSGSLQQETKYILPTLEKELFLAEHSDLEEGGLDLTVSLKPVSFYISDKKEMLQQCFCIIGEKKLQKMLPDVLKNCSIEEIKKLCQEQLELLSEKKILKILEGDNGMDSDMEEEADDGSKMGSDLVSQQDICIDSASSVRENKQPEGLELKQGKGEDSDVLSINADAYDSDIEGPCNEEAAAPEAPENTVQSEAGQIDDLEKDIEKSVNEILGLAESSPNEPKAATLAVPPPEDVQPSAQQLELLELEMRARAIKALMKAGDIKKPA
# UniProt Q96N11, whole entry, looked up: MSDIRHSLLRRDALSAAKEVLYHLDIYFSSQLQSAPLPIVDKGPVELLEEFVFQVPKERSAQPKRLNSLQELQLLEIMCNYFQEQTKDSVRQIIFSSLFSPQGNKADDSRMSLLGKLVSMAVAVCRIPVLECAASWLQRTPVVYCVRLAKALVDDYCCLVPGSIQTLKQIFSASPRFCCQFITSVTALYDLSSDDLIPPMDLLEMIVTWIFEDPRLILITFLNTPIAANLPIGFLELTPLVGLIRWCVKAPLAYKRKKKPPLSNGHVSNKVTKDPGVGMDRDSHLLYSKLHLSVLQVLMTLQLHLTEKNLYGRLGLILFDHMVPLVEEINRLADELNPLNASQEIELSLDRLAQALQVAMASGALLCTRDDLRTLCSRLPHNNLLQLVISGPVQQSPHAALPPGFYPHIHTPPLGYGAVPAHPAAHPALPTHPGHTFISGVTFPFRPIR
# UniProt O75155: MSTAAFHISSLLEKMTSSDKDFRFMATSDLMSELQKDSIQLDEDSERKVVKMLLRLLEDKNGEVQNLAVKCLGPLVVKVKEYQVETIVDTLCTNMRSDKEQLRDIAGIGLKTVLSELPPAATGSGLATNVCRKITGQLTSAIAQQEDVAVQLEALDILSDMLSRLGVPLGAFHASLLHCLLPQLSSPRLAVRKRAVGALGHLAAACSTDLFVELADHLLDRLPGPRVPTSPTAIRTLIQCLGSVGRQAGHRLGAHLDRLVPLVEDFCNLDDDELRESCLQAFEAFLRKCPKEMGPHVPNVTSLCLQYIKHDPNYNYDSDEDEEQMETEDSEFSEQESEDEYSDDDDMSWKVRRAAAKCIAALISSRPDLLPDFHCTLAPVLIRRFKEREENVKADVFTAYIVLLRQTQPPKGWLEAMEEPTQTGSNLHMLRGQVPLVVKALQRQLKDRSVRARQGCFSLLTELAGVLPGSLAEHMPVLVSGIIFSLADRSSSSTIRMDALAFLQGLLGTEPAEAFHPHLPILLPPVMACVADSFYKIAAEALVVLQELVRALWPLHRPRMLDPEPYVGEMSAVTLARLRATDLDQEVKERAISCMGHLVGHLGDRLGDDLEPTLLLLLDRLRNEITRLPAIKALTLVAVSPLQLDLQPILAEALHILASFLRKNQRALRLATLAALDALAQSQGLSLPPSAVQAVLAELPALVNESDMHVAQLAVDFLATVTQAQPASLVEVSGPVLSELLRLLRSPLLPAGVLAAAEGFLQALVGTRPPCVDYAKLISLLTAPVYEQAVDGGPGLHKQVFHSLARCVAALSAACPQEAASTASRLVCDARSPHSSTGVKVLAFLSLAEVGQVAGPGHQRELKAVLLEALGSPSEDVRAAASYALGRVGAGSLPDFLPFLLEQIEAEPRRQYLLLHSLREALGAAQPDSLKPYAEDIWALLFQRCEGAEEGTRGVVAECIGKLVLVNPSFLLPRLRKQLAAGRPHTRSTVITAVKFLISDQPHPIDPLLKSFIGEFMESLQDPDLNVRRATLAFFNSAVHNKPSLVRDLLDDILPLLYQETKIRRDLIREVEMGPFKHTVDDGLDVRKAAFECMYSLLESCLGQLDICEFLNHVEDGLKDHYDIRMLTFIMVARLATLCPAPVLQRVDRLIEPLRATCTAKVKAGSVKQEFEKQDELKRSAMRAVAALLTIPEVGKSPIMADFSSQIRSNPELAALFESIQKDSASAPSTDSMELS
# The other results are listed elsewhere or left out.
# Legend:
# Assay in all cases: log2 fold change, soluble protein after heating vs DMSO (PISA); higher = thermal stabilisation; K562 lysate, 10 uM; active = over 0.2 and 3.5 SD of the protein, either way, in both replicates (recomputed)
# [1] = compound: C=CC(=O)N1CCC[C@@H](n2nc(-c3ccc(Oc4ccccc4)cc3)c3c(N)ncnc32)C1 [ibrutinib]
# Method in brief: (§1)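 Log-two fold change in thermal stability relative to solvent controls is reported from duplicates. For each sample, crude K562 extract from dounce-homogenised pellets in PBS pH 7.4 with 1 mM MgCl2, at 1 mg/mL protein, was treated with 10 μM compound for 30 min. Aliquots heated for 3 min across 48°C-58°C were pooled, brought to 0.5% NP-40 at 4°C and cleared at 21,000xg for 90 min. The supernatant was quantified by TMTpro 16plex LC-MS/MS with channel sums equalised.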
# [2] = compound: CC(=O)c1cnc2ccc(-c3cc(Cl)c(O)c(Cl)c3)nc2c1N[C@H]1CC[C@H](CN(C)C)CC1
# Method in brief: as §1
# [3] = compound: CC(C)(C)Cn1c(N)nc2ccc(-c3[nH]c(C(C)(C)C)nc3-c3ccc(F)cc3)nc21 [ralimetinib]
# Method in brief: as §1
# [4] = compound: CC(C)(O)CC(=O)NCCn1ccc2ncnc(Nc3ccc(Oc4cccc(C(F)(F)F)c4)c(Cl)c3)c21
# Method in brief: as §1
# [5] = compound: CC(C)C1=C2N=C(C=C(N2N=C1)NCC3=CC=CC=C3)NCCCCCCN
# Method in brief: as §1
# [6] = compound: CC1=C(C(CC(=O)N1)C2=CC=C(C=C2)C(F)(F)F)C(=O)NC3=C(C=C4C(=C3)C=NN4)F
# Method in brief: as §1
# [7] = compound: CC1=C(C2=C(C=C1)C(=O)C3=CC=CC=C3N2CCCN)C
# Method in brief: as §1
# [8] = compound: CC1=C(C=C(C=C1)NC(=O)C2=CC(=CC=C2)C(C)(C)C#N)NC3=CC4=C(C=C3)N=CN(C4=O)C
# Method in brief: as §1
# [9] = compound: CC1=C(C=C(C=C1)NC(=O)C2=CC(=CC=C2)N(C)C)NC(=O)C3=CC=C(C=C3)O
# Method in brief: as §1
# [10] = compound: CC1=CC=C(C=C1)SC2=C3C=C(SC3=CN=C2)C(=O)N
# Method in brief: as §1
Target,log2 fold change [1],log2 fold change [2],log2 fold change [3],log2 fold change [4],log2 fold change [5],log2 fold change [6],log2 fold change [7],log2 fold change [8],log2 fold change [9],log2 fold change [10]
CARD11 (UniProt Q9BXL7),inactive: -0.097,inactive: -0.023,inactive: -0.02,inactive: 0.003,inactive: -0.075,inactive: -0.041,inactive: 0.025,inactive: 0.01,inactive: 0.051,inactive: -0.143
CA8 (UniProt P35219),inactive: 0.038,inactive: -0.006,inactive: 0.026,inactive: -0.002,inactive: 0.019,inactive: 0.02,inactive: -0.004,inactive: 0.065,inactive: -0.029,inactive: 0.011
C12orf65 (UniProt Q9H3J6),inactive: 0.147,inactive: -0.015,inactive: 0.019,inactive: -0.01,inactive: 0.027,inactive: -0.028,inactive: -0.115,inactive: -0.009,inactive: -0.005,inactive: 0.035
CAMK2B (UniProt Q13554),inactive: 0.092,inactive: 0.023,inactive: 0.028,inactive: 0.045,inactive: 0.075,inactive: -0.035,inactive: -0.018,inactive: -0.005,inactive: 0.046,inactive: -0.032
BZW2 (UniProt Q9Y6E2),inactive: -0.013,inactive: 0.014,inactive: 0.012,inactive: -0.012,inactive: -0.023,inactive: -0.004,inactive: 0.009,inactive: -0.019,inactive: -0.009,inactive: 0.005
BUB1B isoform 3 (UniProt O60566),inactive: 0.035,inactive: -0.007,inactive: 0.001,inactive: 0.021,inactive: 0.003,inactive: -0.001,inactive: 0.004,inactive: -0.028,inactive: 0.003,inactive: 0.001
C1orf112 (UniProt Q9NSG2),inactive: 0.014,inactive: 0.038,inactive: 0.022,inactive: -0.061,inactive: 0.017,inactive: 0.067,inactive: -0.085,inactive: -0.029,inactive: 0.036,inactive: 0.091
CALB1 (UniProt P05937),inactive: 0.08,inactive: 0.011,inactive: 0.012,inactive: -0.004,inactive: -0.006,inactive: -0.025,inactive: 0.012,inactive: -0.002,inactive: 0.019,inactive: 0.02
CAND1 (UniProt F5H6I6),inactive: 0.009,inactive: -0.088,inactive: -0.09,inactive: -0.147,inactive: 0.056,inactive: -0.041,inactive: 0.05,inactive: 0.06,inactive: 0.056,inactive: -0.021
CAPG (UniProt P40121),inactive: 0.002,inactive: -0.004,inactive: -0.013,inactive: -0.015,inactive: 0.026,inactive: 0.034,inactive: -0.011,inactive: -0.031,inactive: 0.01,inactive: 0.003
CANX isoform 2 (UniProt P27824),inactive: -0.046,inactive: -0.009,inactive: -0.029,inactive: 0.003,inactive: 0.007,inactive: 0.001,inactive: -0.004,inactive: 0.011,inactive: 0.029,inactive: -0.025
C16orf58 (UniProt Q96GQ5),inactive: 0.008,inactive: 0.002,inactive: -0.025,inactive: 0,inactive: 0.009,inactive: 0.071,inactive: -0.015,inactive: 0.03,inactive: -0.044,inactive: 0.011
CAPN2 (UniProt P17655),inactive: -0.004,inactive: 0.005,inactive: 0.011,inactive: -0.006,inactive: 0.006,inactive: 0.005,inactive: 0.011,inactive: 0.003,inactive: 0.003,inactive: 0.002
CAP1 (UniProt Q01518),inactive: 0.007,inactive: -0.019,inactive: -0.021,inactive: -0.018,inactive: 0.002,inactive: -0.014,inactive: 0.012,inactive: 0.024,inactive: -0.026,inactive: 0.001
CAPRIN1 (UniProt Q14444),inactive: 0.025,inactive: -0.023,inactive: 0.013,inactive: 0.022,inactive: -0.004,inactive: -0.044,inactive: -0.001,inactive: -0.018,inactive: -0.033,inactive: -0.023
C11orf98 (UniProt E9PRG8),inactive: -0.008,inactive: -0.024,inactive: -0.035,inactive: -0.026,inactive: -0.004,inactive: 0.005,inactive: -0.031,inactive: 0.033,inactive: -0.011,inactive: 0.008
CAB39 (UniProt Q9Y376),inactive: -0.017,inactive: 0.014,inactive: -0.003,inactive: 0.009,inactive: -0.002,inactive: -0.039,inactive: 0.013,inactive: -0.013,inactive: -0.02,inactive: -0.013
CAMKK2 (UniProt Q96RR4),inactive: 0.052,active: 0.231,inactive: 0.035,inactive: -0.005,inactive: 0.019,inactive: -0.011,inactive: -0.005,inactive: -0.031,inactive: 0.005,inactive: 0.014
CAB39L (UniProt Q9H9S4),inactive: 0.019,inactive: -0.023,inactive: -0.015,inactive: -0.079,inactive: -0.053,inactive: -0.023,inactive: -0.158,inactive: 0.114,inactive: 0.033,inactive: -0.032
CAMKK1 isoform 2 (UniProt Q8N5S9),inactive: 0.027,inactive: 0.189,inactive: 0.063,inactive: -0.153,inactive: -0.059,inactive: -0.008,inactive: -0.055,inactive: 0.014,inactive: 0.004,inactive: 0.138
C1orf52 (UniProt Q8N6N3),inactive: 0.035,inactive: -0.007,inactive: -0.039,inactive: 0.048,inactive: 0.022,inactive: 0.044,inactive: -0.033,inactive: 0.014,inactive: -0.003,inactive: -0.015
C2CD5 isoform 3 (UniProt Q86YS7),inactive: -0.005,inactive: -0.026,inactive: 0.016,inactive: -0.123,inactive: 0.019,inactive: -0.018,inactive: 0.023,inactive: 0.071,inactive: -0.004,inactive: -0.068
C19orf53 (UniProt Q9UNZ5),inactive: 0.011,inactive: -0.013,inactive: 0.024,inactive: -0.044,inactive: -0.036,inactive: 0.018,inactive: -0.041,inactive: -0.011,inactive: 0.025,inactive: 0.029
C7orf50 (UniProt Q9BRJ6),inactive: 0.053,inactive: -0.017,inactive: 0.05,inactive: -0.038,inactive: 0.018,inactive: 0.004,inactive: -0.139,inactive: 0.001,inactive: 0.043,inactive: 0.009
CAAP1 (UniProt Q9H8G2),inactive: -0.066,inactive: -0.008,inactive: 0.012,inactive: -0.075,inactive: 0.05,inactive: 0.031,inactive: -0.198,inactive: -0.062,inactive: -0.01,inactive: -0.039
C7orf26 (UniProt Q96N11),inactive: 0.091,inactive: 0.024,inactive: 0.024,inactive: 0.001,inactive: 0.01,inactive: 0.184,inactive: -0.002,inactive: 0.006,inactive: 0.027,inactive: 0.025
CAND2 (UniProt O75155),inactive: -0.015,inactive: -0.009,inactive: -0.041,inactive: -0.048,inactive: -0.03,inactive: -0.005,inactive: -0.005,inactive: -0.008,inactive: 0.036,inactive: -0.009
BUB3 (UniProt O43684),inactive: 0.001,inactive: -0.006,inactive: 0.012,inactive: 0.015,inactive: 0.008,inactive: -0.027,inactive: -0.017,inactive: -0.006,inactive: -0.023,inactive: 0.022

# Some entries already given, reduced to log2 fold change [2] and log2 fold change [5]:
Target,log2 fold change [2],log2 fold change [5]
CAPG (UniProt P40121),inactive: -0.004,inactive: 0.026
C19orf53 (UniProt Q9UNZ5),inactive: -0.013,inactive: -0.036
